Data as given in PubChem BioAssay AID504786 (Drosophila RNAi Screening Center, 2011)

Test: 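Fly genes required for HIF-dependent transcription when hypoxia is mimicked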 (primary screen)
Cell system: Drosophila S2 cells with a stable HIF luciferase reporter
Reagents: long dsRNA against Drosophila genes, about 0.2 µg dsRNA per well of a 384-well plate
Timing: three days of knock-down, then 20 h of DFO before reading
Challenge: desferrioxamine (DFO) at 100 µM, an iron chelator that mimics hypoxia, for 20 h
Read-out: 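HIF reporter luminescence in cells given 100 µM DFO for 20 h, using the mouse ldh-a hypoxia-response element, scored as per-plate z-scores; higher means greater loss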
Direction: z-score: higher = stronger loss of HIF reporter signal
In all, the deposit lists about 21,000 reagents; shown is an unselected part of those that have a named target and a result. 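Primary screen; positive scores mean lost reporter signal, so the sign may be inverted from the usual convention.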 Reagents against one gene are numbered here. Not all columns of the deposit are shown. No sequences are given here.

| gene knocked down | reagent no. | z-score, replicate 1 | z-score, replicate 2 | z-score, replicate 3 |
| --- | --- | --- | --- | --- |
| CG11842 | 1 | -0.4 | -0.1 | – |
| nudE | 1 | -0.2 | 0.5 | – |
| nudE | 2 | -0.1 | 0.2 | – |
| TBC1D5 | 1 | -0.4 | -0.7 | – |
| Hen1 | 1 | -0.2 | -0.1 | – |
| Hen1 | 2 | -0.1 | 0.4 | – |
| eIF4B | 1 | -0.4 | -0.6 | – |
| S-Lap8 | 1 | -0.3 | -0.4 | -0.8 |
| CG14624 | 1 | -0.3 | -0.1 | – |
| CG40498 | 1 | -0.2 | -0.2 | – |
| CG6621 | 1 | -0.3 | -0.2 | – |
| Eno | 1 | -0.4 | -1.2 | – |
| CG3085 | 1 | -0.2 | -0.9 | – |
| CG33648 | 1 | -0.3 | 0 | – |
| fal | 1 | -0.1 | -0.1 | – |
| robl62A | 1 | -0.3 | -0.1 | – |
| CG15544 | 1 | -0.4 | -0.7 | – |
| CG13887 | 1 | -0.1 | 0.1 | – |
| yin | 1 | -0.3 | -0.4 | – |
| tapas | 1 | -0.2 | -0.2 | – |
| Kots | 1 | -0.3 | -0.2 | – |
| DCTN1-p150 | 1 | -0.3 | -0.1 | – |
| PPO3 | 1 | -0.3 | -0.3 | – |
| dpr7 | 1 | -0.2 | -0.3 | – |
| CG31522 | 1 | -0.4 | 0.6 | – |
| mmy | 1 | -0.3 | -0.2 | – |
| CG17169 | 1 | -0.3 | -0.3 | – |
| Cth | 1 | 0.3 | -0.3 | – |
| CG42382 | 1 | -0.3 | -0.4 | – |
| mRRF2 | 1 | -0.2 | 0.7 | – |
| CG12170 | 1 | -0.4 | -0.6 | 0.1 |
| Bhmt | 1 | -0.4 | -0.6 | – |
| Mur11Da | 1 | -0.2 | -0.3 | – |
| Or43b | 1 | -0.3 | -0.3 | – |

Reformatted: results already given.
{"gene knocked down": "CG12170", "reagent no.": 1, "z-score, replicate 1": -0.4, "z-score, replicate 2": -0.6, "z-score, replicate 3": 0.1}
{"gene knocked down": "Bhmt", "reagent no.": 1, "z-score, replicate 1": -0.4, "z-score, replicate 2": -0.6}
